According to paper doi:10.1101/2020.09.09.289587:
Where two headings read alike, the source gives them in different places. Results are given in words; binding and its absence hold for the method and conditions named. Binding seen in cells or lysates may run through a third protein. Some binding calls cover weakened binding; strength is not graded here.

Amino acid sequences for entries named in this document (tags omitted).
UniProt O00571: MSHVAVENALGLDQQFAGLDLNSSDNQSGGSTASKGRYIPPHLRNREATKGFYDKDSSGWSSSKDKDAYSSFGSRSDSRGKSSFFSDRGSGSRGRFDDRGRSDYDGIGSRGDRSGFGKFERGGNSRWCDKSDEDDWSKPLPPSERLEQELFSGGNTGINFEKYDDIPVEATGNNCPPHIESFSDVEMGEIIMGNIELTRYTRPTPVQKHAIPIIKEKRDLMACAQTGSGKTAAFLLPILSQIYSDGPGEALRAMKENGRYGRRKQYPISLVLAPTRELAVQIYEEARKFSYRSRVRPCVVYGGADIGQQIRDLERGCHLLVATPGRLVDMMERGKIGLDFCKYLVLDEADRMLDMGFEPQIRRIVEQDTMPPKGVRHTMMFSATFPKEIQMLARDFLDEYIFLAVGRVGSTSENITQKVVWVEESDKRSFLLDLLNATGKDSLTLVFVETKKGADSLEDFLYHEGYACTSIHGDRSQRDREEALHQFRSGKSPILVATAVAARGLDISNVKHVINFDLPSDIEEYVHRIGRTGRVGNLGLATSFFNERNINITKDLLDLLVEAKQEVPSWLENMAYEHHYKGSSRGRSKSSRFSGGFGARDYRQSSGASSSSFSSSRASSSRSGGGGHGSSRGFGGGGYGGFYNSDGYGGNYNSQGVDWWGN

Assays:
[1] = molecular target: DEAD-box RNA helicase 3X (DDX3X) (human (endogenous in MCF7)) (UniProt O00571); experiment: co-IP
[2] = molecular target: DEAD-box RNA helicase 3X (DDX3X) (human (endogenous in MCF7)) (UniProt O00571); experiment: co-IP; remark: listed apart in the source

B1: ADAR1-p110 (110 kDa isoform of ADAR1) (protein, UniProt P55265-5 1-931)
chain: MAEIKEKICDYLFNVSDSSALNLAKNIGLTKARDINAVLIDMERQGDVYRQGTTPPIWHLTDKKRERMQIKRNTNSVPETAPAAIPETKRNAEFLTCNIPTSNASNNMVTTEKVENGQEPVIKLENRQEARPEPARLKPPVHYNGPSKAGYVDFENGQWATDDIPDDLNSIRAAPGEFRAIMEMPSFYSHGLPRCSPYKKLTECQLKNPISGLLEYAQFASQTCEFNMIEQSGPPHEPRFKFQVVINGREFPPAEAGSKKVAKQDAAMKAMTILLEEAKAKDSGKSEESSHYSTEKESEKTAESQTPTPSATSFFSGKSPVTTLLECMHKLGNSCEFRLLSKEGPAHEPKFQYCVAVGAQTFPSVSAPSKKVAKQMAAEEAMKALHGEATNSMASDNQPEGMISESLDNLESMMPNKVRKIGELVRYLNTNPVGGLLEYARSHGFAAEFKLVDQSGPPHEPKFVYQAKVGGRWFPAVCAHSKKQGKQEAADAALRVLIGENEKAERMGFTEVTPVTGASLRRTMLLLSRSPEAQPKTLPLTGSTFHDQIAMLSHRCFNTLTNSFQPSLLGRKILAAIIMKKDSEDMGVVVSLGTGNRCVKGDSLSLKGETVNDCHAEIISRRGFIRFLYSELMKYNSQTAKDSIFEPAKGGEKLQIKKTVSFHLYISTAPCGDGALFDKSCSDRAMESTESRHYPVFENPKQGKLRTKVENGEGTIPVESSDIVPTWDGIRLGERLRTMSCSDKILRWNVLGLQGALLTHFLQPIYLKSVTLGYLFSQGHLTRAICCRVTRDGSAFEDGLRHPFIVNHPKVGRVSIYDSKRQSGKTKETSVNWCLADGYDLEILDGTRGTVDGPRNELSRVSKKNIFLLFKKLCSFRYRRDLLRLSYGEAKKAARDYETAKNYFKKGLKDMGYGNWISKPQEEKNFYLCPV
[1]
  binding: binds

B2: ADAR1-p150 (150 kDa isoform of ADAR1) (protein, UniProt P55265-1 1-1226)
chain: MNPRQGYSLSGYYTHPFQGYEHRQLRYQQPGPGSSPSSFLLKQIEFLKGQLPEAPVIGKQTPSLPPSLPGLRPRFPVLLASSTRGRQVDIRGVPRGVHLRSQGLQRGFQHPSPRGRSLPQRGVDCLSSHFQELSIYQDQEQRILKFLEELGEGKATTAHDLSGKLGTPKKEINRVLYSLAKKGKLQKEAGTPPLWKIAVSTQAWNQHSGVVRPDGHSQGAPNSDPSLEPEDRNSTSVSEDLLEPFIAVSAQAWNQHSGVVRPDSHSQGSPNSDPGLEPEDSNSTSALEDPLEFLDMAEIKEKICDYLFNVSDSSALNLAKNIGLTKARDINAVLIDMERQGDVYRQGTTPPIWHLTDKKRERMQIKRNTNSVPETAPAAIPETKRNAEFLTCNIPTSNASNNMVTTEKVENGQEPVIKLENRQEARPEPARLKPPVHYNGPSKAGYVDFENGQWATDDIPDDLNSIRAAPGEFRAIMEMPSFYSHGLPRCSPYKKLTECQLKNPISGLLEYAQFASQTCEFNMIEQSGPPHEPRFKFQVVINGREFPPAEAGSKKVAKQDAAMKAMTILLEEAKAKDSGKSEESSHYSTEKESEKTAESQTPTPSATSFFSGKSPVTTLLECMHKLGNSCEFRLLSKEGPAHEPKFQYCVAVGAQTFPSVSAPSKKVAKQMAAEEAMKALHGEATNSMASDNQPEGMISESLDNLESMMPNKVRKIGELVRYLNTNPVGGLLEYARSHGFAAEFKLVDQSGPPHEPKFVYQAKVGGRWFPAVCAHSKKQGKQEAADAALRVLIGENEKAERMGFTEVTPVTGASLRRTMLLLSRSPEAQPKTLPLTGSTFHDQIAMLSHRCFNTLTNSFQPSLLGRKILAAIIMKKDSEDMGVVVSLGTGNRCVKGDSLSLKGETVNDCHAEIISRRGFIRFLYSELMKYNSQTAKDSIFEPAKGGEKLQIKKTVSFHLYISTAPCGDGALFDKSCSDRAMESTESRHYPVFENPKQGKLRTKVENGEGTIPVESSDIVPTWDGIRLGERLRTMSCSDKILRWNVLGLQGALLTHFLQPIYLKSVTLGYLFSQGHLTRAICCRVTRDGSAFEDGLRHPFIVNHPKVGRVSIYDSKRQSGKTKETSVNWCLADGYDLEILDGTRGTVDGPRNELSRVSKKNIFLLFKKLCSFRYRRDLLRLSYGEAKKAARDYETAKNYFKKGLKDMGYGNWISKPQEEKNFYLCPV
[2]
  binding: binds
[1]
  binding: binds
